From PMC13140700
These are yes or no findings as the source states them, for the method shown. A result given as binding can be weak or reduced; the word gives no strength.

Molecular target: GST–TaJAZ1 (wheat (Triticum aestivum))
Experiment: pull-down; 10 μg GST–TaJAZ1 bound to glutathione agarose resin, incubated overnight with 10 μg His–MBP–TaMYC2 in PBS at 4°C, seven washes, immunoblot with anti-GST or anti-His; both purified

Question: With “His–MBP–TaMYC2 (from UniProt A0A3B5XZE8)” as the substance, how does the binding read?
Answer: Its binding is “binds”.
